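Malaria parasite (P. falciparum) lines kept in red blood cells; parasite DNA is measured by SYBR Green fluorescence after lysis, 72 h after compound addition. Each compound was titrated across a series from about 0.000037 to 29 µM. The number is the fitted AC50, the concentration giving a half-maximal change in signal; a lower value means higher potency, whether the curve shows a decrease or an increase. Calls follow the curve class and fit quality: every row here is inconclusive, covering signal-raising curves and weak, poorly fitted, partial or highest-dose-only inhibition curves.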

Values are in µM. All entries here are filed as inconclusive. Only part of the assay is shown, chiefly results filed as inconclusive. A potency from a partial, single-point or poor curve is only a rough figure.

| compound | setting | Potency (µM) | curve |
|---|---|---|---|
| `COc1cc([C@H]2c3cc4c(cc3[C@@H](O[C@H]3O[C@H]5CO[C@@H](C)O[C@H]5[C@@H](O)[C@@H]3O)[C@@H]3COC(=O)[C@H]23)OCO4)cc(OC)c1O` | TAB165 | 17.78 | inhibitor, single point |
| `COc1cc([C@H]2c3cc4c(cc3[C@@H](O[C@H]3O[C@H]5CO[C@@H](C)O[C@H]5[C@@H](O)[C@@H]3O)[C@@H]3COC(=O)[C@H]23)OCO4)cc(OC)c1O` | GB4 | 13.46 | inhibitor, single point |
| `COc1cc([C@H]2c3cc4c(cc3[C@@H](O[C@H]3O[C@H]5CO[C@@H](C)O[C@H]5[C@@H](O)[C@@H]3O)[C@@H]3COC(=O)[C@H]23)OCO4)cc(OC)c1O` | CP305 | 16.94 | inhibitor, partial curve, poor fit |
| `COc1cc([C@H]2c3cc4c(cc3[C@@H](O[C@H]3O[C@H]5CO[C@@H](C)O[C@H]5[C@@H](O)[C@@H]3O)[C@@H]3COC(=O)[C@H]23)OCO4)cc(OC)c1O` | DIV17 | 16.94 | inhibitor, single point |
| `COc1cc([C@H]2c3cc4c(cc3[C@@H](O[C@H]3O[C@H]5CO[C@@H](C)O[C@H]5[C@@H](O)[C@@H]3O)[C@@H]3COC(=O)[C@H]23)OCO4)cc(OC)c1O` | CP268 | 12 | inhibitor, single point |
| `COc1cc([C@H]2c3cc4c(cc3[C@@H](O[C@H]3O[C@H]5CO[C@@H](C)O[C@H]5[C@@H](O)[C@@H]3O)[C@@H]3COC(=O)[C@H]23)OCO4)cc(OC)c1O` | CP256 | 11.22 | inhibitor, single point |
| `COc1cc([C@H]2c3cc4c(cc3[C@@H](O[C@H]3O[C@H]5CO[C@@H](C)O[C@H]5[C@@H](O)[C@@H]3O)[C@@H]3COC(=O)[C@H]23)OCO4)cc(OC)c1O` | CP185 | 17.78 | inhibitor, single point |
| `COc1cc([C@H]2c3cc4c(cc3[C@@H](O[C@H]3O[C@H]5CO[C@@H](C)O[C@H]5[C@@H](O)[C@@H]3O)[C@@H]3COC(=O)[C@H]23)OCO4)cc(OC)c1O` | JCK | 11.22 | inhibitor, single point |
| `COc1cc([C@H]2c3cc4c(cc3[C@@H](O[C@H]3O[C@H]5CO[C@@H](C)O[C@H]5[C@@H](O)[C@@H]3O)[C@@H]3COC(=O)[C@H]23)OCO4)cc(OC)c1O` | 3D7 | 11.22 | inhibitor, single point |
| `COc1ccc(-c2nc3ccc(C4=C(C)CC(=O)NN4)cc3[nH]2)cc1` | DIV17 | 13.46 | inhibitor, partial curve |
| `COc1ccc(-c2nc3ccc(C4=C(C)CC(=O)NN4)cc3[nH]2)cc1` | PAD | 11.22 | inhibitor, single point |
| `COc1ccc(-c2nc3ccc(C4=C(C)CC(=O)NN4)cc3[nH]2)cc1` | CP215 | 4.776 | inhibitor, partial curve |
| `COc1ccc(-c2nc3ccc(C4=C(C)CC(=O)NN4)cc3[nH]2)cc1` | ECU | 17.78 | inhibitor, single point |
| `COc1ccc(-c2nc3ccc(C4=C(C)CC(=O)NN4)cc3[nH]2)cc1` | CP268 | 4.256 | inhibitor, single point |
| `COc1ccc(-c2nc3ccc(C4=C(C)CC(=O)NN4)cc3[nH]2)cc1` | CP194 | 6.746 | inhibitor, partial curve, poor fit |
| `COc1ccc(-c2nc3ccc(C4=C(C)CC(=O)NN4)cc3[nH]2)cc1` | CP211 | 2.686 | inhibitor, partial curve, poor fit |
| `COc1ccc(-c2nc3ccc(C4=C(C)CC(=O)NN4)cc3[nH]2)cc1` | TAB113 | 7.08 | inhibitor, partial curve |
| `COc1ccc(-c2nc3ccc(C4=C(C)CC(=O)NN4)cc3[nH]2)cc1` | parasite line A | 10 | inhibitor, single point |
| `COc1ccc(-c2nc3ccc(C4=C(C)CC(=O)NN4)cc3[nH]2)cc1` | ATS95 | 12.59 | inhibitor, single point |
| `COc1ccc(-c2nc3ccc(C4=C(C)CC(=O)NN4)cc3[nH]2)cc1` | PC26 | 21.33 | inhibitor, single point |
| `COc1ccc(-c2nc3ccc(C4=C(C)CC(=O)NN4)cc3[nH]2)cc1` | AS120 | 5.012 | inhibitor, partial curve, poor fit |
| `COc1ccc(-c2nc3ccc(C4=C(C)CC(=O)NN4)cc3[nH]2)cc1` | CP203 | 6.746 | inhibitor, partial curve |
| `COc1ccc(-c2nc3ccc(C4=C(C)CC(=O)NN4)cc3[nH]2)cc1` | SC27B | 12.59 | inhibitor, single point |
| `COc1ccc(-c2nc3ccc(C4=C(C)CC(=O)NN4)cc3[nH]2)cc1` | CP237 | 10 | inhibitor, single point |
| `COc1ccc(-c2nc3ccc(C4=C(C)CC(=O)NN4)cc3[nH]2)cc1` | 3D7 | 11.22 | inhibitor, partial curve |
| `COc1ccc(-c2nc3ccc(C4=C(C)CC(=O)NN4)cc3[nH]2)cc1` | GB4 | 9.528 | inhibitor, partial curve |
| `COc1ccc(-c2nc3ccc(C4=C(C)CC(=O)NN4)cc3[nH]2)cc1` | CP269 | 5.358 | inhibitor, partial curve, poor fit |
| `COc1ccc(-c2nc3ccc(C4=C(C)CC(=O)NN4)cc3[nH]2)cc1` | TAB165 | 12.59 | inhibitor, single point |
| `COc1ccc(-c2nc3ccc(C4=C(C)CC(=O)NN4)cc3[nH]2)cc1` | DIV30 | 0.3013 | inhibitor, full curve, poor fit |
| `COc1ccc(-c2nc3ccc(C4=C(C)CC(=O)NN4)cc3[nH]2)cc1` | CP247 | 5.012 | inhibitor, partial curve, poor fit |
| `COc1ccc(-c2nc3ccc(C4=C(C)CC(=O)NN4)cc3[nH]2)cc1` | DIV14 | 15.1 | inhibitor, partial curve |
| `COc1ccc(-c2nc3ccc(C4=C(C)CC(=O)NN4)cc3[nH]2)cc1` | P93_24 | 7.943 | inhibitor, partial curve |
| `COc1ccc(-c2nc3ccc(C4=C(C)CC(=O)NN4)cc3[nH]2)cc1` | CP297 | 15.1 | inhibitor, partial curve, poor fit |
| `C=C1NC(=O)c2cc(CN(C)c3ccc(C(=O)N[C@@H](CCC(=O)O)C(=O)O)s3)ccc2N1` | GB4 | 19.01 | inhibitor, single point |
| `C=C1NC(=O)c2cc(CN(C)c3ccc(C(=O)N[C@@H](CCC(=O)O)C(=O)O)s3)ccc2N1` | DIV14 | 19.01 | inhibitor, single point |
| `C=C1NC(=O)c2cc(CN(C)c3ccc(C(=O)N[C@@H](CCC(=O)O)C(=O)O)s3)ccc2N1` | CP291 | 19.01 | inhibitor, single point |
| `C=C1NC(=O)c2cc(CN(C)c3ccc(C(=O)N[C@@H](CCC(=O)O)C(=O)O)s3)ccc2N1` | P93_24 | 17.78 | inhibitor, single point |
| `C=C1NC(=O)c2cc(CN(C)c3ccc(C(=O)N[C@@H](CCC(=O)O)C(=O)O)s3)ccc2N1` | CP237 | 10 | inhibitor, single point |
| `C=C1NC(=O)c2cc(CN(C)c3ccc(C(=O)N[C@@H](CCC(=O)O)C(=O)O)s3)ccc2N1` | CP297 | 15.1 | inhibitor, single point |

4 of the entries, repeated:

| compound | setting | Potency (µM) | curve |
|---|---|---|---|
| `COc1ccc(-c2nc3ccc(C4=C(C)CC(=O)NN4)cc3[nH]2)cc1` | TAB113 | 7.08 | inhibitor, partial curve |
| `COc1ccc(-c2nc3ccc(C4=C(C)CC(=O)NN4)cc3[nH]2)cc1` | SC27B | 12.59 | inhibitor, single point |
| `COc1cc([C@H]2c3cc4c(cc3[C@@H](O[C@H]3O[C@H]5CO[C@@H](C)O[C@H]5[C@@H](O)[C@@H]3O)[C@@H]3COC(=O)[C@H]23)OCO4)cc(OC)c1O` | DIV17 | 16.94 | inhibitor, single point |
| `COc1ccc(-c2nc3ccc(C4=C(C)CC(=O)NN4)cc3[nH]2)cc1` | CP203 | 6.746 | inhibitor, partial curve |

From PubChem BioAssay record AID504749 (NCATS, 2011).